# Experimental data published in the supplement of paper PMC3334620.
# The full ranking holds about 33,000 sequences; the median of “E-score (-0.5 to 0.5)” is about -0.0014, and the highest 2% start at about 0.25. This is one part of the list.
# Target: T1, Cad1 (UniProt P24813)
# T1 sequence: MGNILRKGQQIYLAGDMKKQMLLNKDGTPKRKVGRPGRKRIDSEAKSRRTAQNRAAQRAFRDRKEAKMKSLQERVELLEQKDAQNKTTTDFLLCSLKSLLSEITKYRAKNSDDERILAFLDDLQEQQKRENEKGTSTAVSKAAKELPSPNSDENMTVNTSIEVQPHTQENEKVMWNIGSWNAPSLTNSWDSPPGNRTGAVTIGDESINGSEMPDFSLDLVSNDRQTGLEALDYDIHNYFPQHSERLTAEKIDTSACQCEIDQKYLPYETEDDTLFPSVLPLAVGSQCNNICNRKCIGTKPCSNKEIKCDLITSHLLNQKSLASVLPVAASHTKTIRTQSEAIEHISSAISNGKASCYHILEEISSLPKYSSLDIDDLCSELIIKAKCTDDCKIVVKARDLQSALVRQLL
# Assay: PBM E-score (8-mer binding enrichment) (E-score (-0.5 to 0.5)); higher = stronger / more preferred TF binding
# Details: protein concentration: 100 nM; construct: GST-full length
# How it was run: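 Universal all-10-mer Agilent arrays, fresh or stripped once, were converted to double-stranded form by primer extension. GST-tagged yeast transcription factors from PURExpress in vitro transcription/translation, full-length or DNA-binding domain only, were applied at about 100-200 nM and detected with fluorescent anti-GST. After masliner normalisation, the Universal PBM Analysis Suite scored each ungapped eight-base word together with its reverse complement by E-score.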
row,Sequence,PBM E-score
1,AAGGTCAG,-0.105
2,CGCATAGC,-0.0722
3,AAGCACTC,0.0478
4,GCGGAGCA,-0.246
5,ACTCGTCT,0.0182
6,AATTTCAC,0.178
7,ACATCTTA,-0.0753
8,ACGAAGAT,0.0507
9,ACACTGTC,0.0876
10,CCAACAAG,-0.13
11,AGTGGTCC,-0.00985
12,CCTGGTAC,-0.0372
13,GTAATGTA,0.00177
14,CTATTTTA,0.104
15,ATCGTTAA,0.165
16,GTTACACA,0.101
17,AGGGTTCA,0.0205
18,CGTTACAG,-0.0983
19,CTCTATTA,-0.0331
20,CAGAGGGG,-0.351
21,ACTGTACT,-0.125
22,ATAATAGG,0.0291

row,Sequence,PBM E-score
1,ATCATGTC,0.195
2,CGTTGGCC,-0.189
3,ACCCTGTA,0.0849
4,AAGGCTAG,-0.137
5,CAAATTTG,0.33
6,TACACCCA,0.0878
7,GGCGTTTA,-0.0553
8,GTTTACTA,0.195
9,CAGTGCAA,0.137
10,GTTTCTAA,0.00035
11,ATAAATTA,0.364
12,GTTGACGA,0.108
13,CACCATAC,-0.0136
14,ACCAGTCA,-0.0959
15,CCAATCCC,-0.119
16,CAACTCTC,-0.0706
17,AAGTTAAC,0.199
18,CGTATGTC,-0.101
19,ACTATCTC,0.0895
20,ACAGCAGA,0.00526
21,CCAAAGGG,-0.0732
22,CCTTGCGC,-0.0395

row,Sequence,PBM E-score
1,CCTACACG,-0.175
2,GGACATCC,0.0434
3,CTATGCTA,0.0539
4,ATATCGAT,0.23
5,AAAGCTTC,-0.0978
6,GCTTCCCA,-0.121
7,CTATCAAC,0.219
8,TTAATGAA,0.115
9,GAGTCTAC,-0.221
10,CAGGGGGA,-0.365
11,ATGTTGAC,0.0163
12,AAACCCGT,-0.148
13,CCGGCTTA,0.0705
14,ATCTTCAC,-0.0332
15,ACGCTTCA,-0.227
16,GATTCAGA,0.185
17,CCCTACAG,-0.124
18,CGATCTGA,0.0521
19,ACAGCGGC,0.0806
20,ACATATGT,0.0475
21,AGCTCCCC,-0.375
22,GACCGCTC,-0.231

# As a working copy, some entries already given.
row,Sequence,PBM E-score
4,AAGGCTAG,-0.137
5,CAAATTTG,0.33
6,TACACCCA,0.0878
7,GGCGTTTA,-0.0553
8,GTTTACTA,0.195
9,CAGTGCAA,0.137
10,GTTTCTAA,0.00035
11,ATAAATTA,0.364
12,GTTGACGA,0.108
13,CACCATAC,-0.0136
14,ACCAGTCA,-0.0959
15,CCAATCCC,-0.119
16,CAACTCTC,-0.0706
17,AAGTTAAC,0.199
18,CGTATGTC,-0.101
19,ACTATCTC,0.0895
20,ACAGCAGA,0.00526
21,CCAAAGGG,-0.0732
22,CCTTGCGC,-0.0395
1,CCTACACG,-0.175
2,GGACATCC,0.0434
3,CTATGCTA,0.0539
4,ATATCGAT,0.23
5,AAAGCTTC,-0.0978

# (cont.)

row,Sequence,PBM E-score
1,CTCTCCAG,-0.318
2,ACGGTGTC,-0.0795
3,AAATTGCA,0.108
4,CGGAACGA,0.0857
5,GTCTAACA,-0.161
6,ATTGAGTC,0.0114
7,AGTTGTCC,-0.0988
8,GTCTACGA,-0.0725
9,TGCAGAAA,0.114
10,AGGACAAA,0.141
11,GCGCGATA,0.211
12,CACGTTCA,-0.0186
13,CCCGGTTC,-0.0704
14,AAACCGCA,-0.213
15,GACCCTGA,-0.167
16,CATCTATC,0.0193
17,TCGGGACA,-0.11
18,AGTAGGTG,-0.0552
19,GTCTCAGA,-0.138
20,CGATAAAC,-0.0544
